# Results reported in US12134640B2, “Polypeptides and medical uses thereof” (priority 2016, dated 2024).
# Assay: Circular dichroism in the presence of LPS
# Conditions: presence of LPS (0.2 mg/ml)
row,Sequence,secondary structure (CD spectra)
1,FFLKDFSTKRQIIDAINKVVYKGGR (FFL25 peptide) [peptide derived from VWA domain of collagen type VI α3-chain],mixture of alpha helix and beta sheet
2,FYLKTYRSQAPVLDAIRRLRLRGGS (FYL25 peptide) [peptide derived from VWA domain of collagen type VI α3-chain],mixture of alpha helix and beta sheet
3,GVRPDGFAHIRDFVSRIVRRLNIGPSKV (GVR28 peptide) [peptide derived from VWA domain of collagen type VI α3-chain],mixture of alpha helix and beta sheet
4,VTTEIRFADSKRKSVLLDKIKNLQVALTSK (VTT30 peptide) [peptide derived from VWA domain of collagen type VI α3-chain],mixture of alpha helix and beta sheet

# Some entries repeat one wording, which the source may state once for all of them.
